The assay is described as follows: qHTS Assay for Lipid Storage Modulators in Drosophila S3 Cells.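 For cell number change: cells counted by Cell Tracker Red CMTPX staining in the red channel.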 The settings on record: BODIPY lipid droplet fluorescence, 18-24 h; for cell number change: measured here: cell count max response, cells fed with added oleic acid. A digest of the protocol:
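Drosophila S3 cells loaded with oleic acid (400 uM, as added) and compounds at several concentrations; lipid droplets imaged by 488-nm laser-scanning cytometry, 500–530 nm intensity and object ratio to cell channel. Percent activity normalized to 20 uM Triacsin C.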

Where [1] appears, read: measured here: cell number channel AC50, cells fed with added oleic acid.
Setting [2] is: measured here: lipid fluorescence (Fed channel) AC50, cells fed with added oleic acid.

Molecules are shown by their SMILES. The list shows a part of the results. Shown are side measurements of this screen, not its main read-out; they come without a call. The list favours compounds with an active or inconclusive main result. The note in brackets gives the kind of curve behind each potency; many fits are weak.

Regarding `COc1cccc(C(=O)NNC(=O)C(=O)Nc2cccc3ccccc23)c1`, the cell number change came to 111%. Besides, the AC50 (in general, the midpoint of the concentration-response curve, whichever way the signal moves) under setting [1] was 23.1 µM [rising, partial curve].
Take `CC(CCc1ccccc1)NCC#N` (configuration not stated): the cell number change was -21.2%. Also, the AC50 under setting [2] was 8.2 µM [falling, partial curve].
Consider `O=C(c1cccc(S(=O)(=O)Nc2ccccc2Cl)c1)N1CCN(C(=O)c2ccco2)CC1`, for which the cell number change came out at 20.4%.
As for `CC(=O)c1ccc(NC(=O)C2(c3ccccc3)CCOCC2)cc1`, the cell number change was -4.46%.
With `O=c1c2c3nc4ccccc4nc3n(-c3ccc4c(c3)OCCO4)c2ncn1C1CCCC1`, the cell number change was -4.83%.
With `COc1ccc(C(=O)NNC(=O)CSc2nnc(-c3cccnc3)n2C)cc1`, the cell number change was 1.85%.
As to `COc1ccc(N2C(=O)C3CCCN3C2=O)cc1` (configuration not stated), under setting [2], the AC50 was 2.91 µM [falling, full curve].
As for `O=C(C(Cc1ccccc1)n1cccc1)N1CCN(c2cccc(Cl)c2)CC1` (configuration not stated), the cell number change was 17.1%. The AC50 under setting [2] is 16.4 µM [rising, single point].
Take `CCOC(=O)Cc1csc(NC(=O)c2sc3nc4ccc(C)cc4cc3c2N)n1`: the cell number change was found to be 138%. Besides, the AC50 under setting [1] was 23.1 µM [rising, partial curve]. For the same compound, the half-maximal activity concentration (AC50) under setting [2] is 29.1 µM [falling, single point].
In the case of `O=C(c1ccc(S(=O)(=O)N2CCCC2)cc1)N(c1ccc(F)cc1)C1C=CS(=O)(=O)C1` (configuration not stated), the cell number change is -20.3%.
Consider `Cc1csc(NC(=O)CSc2nc3sc(C)c(C)c3c(=O)[nH]2)n1`, for which the cell number change was determined as 8.26%. The AC50 under setting [2] was 0.0366 µM [falling, full curve, poor fit].
With `O=C(CSc1ccc2nnc(-c3cccnc3)n2n1)Nc1ccc(F)cc1`, the cell number change is -5.49%. Also, under setting [2], the AC50 is 25.9 µM [falling, partial curve, poor fit].
For the compound `CN(C)Cc1c(C(=O)N/N=C/c2ccc(OCc3c(F)cccc3Cl)cc2)nnn1-c1nonc1N`, the cell number change was found to be 7.55%. The half-maximal activity concentration (AC50) under setting [2] was 6.51 µM [falling, single point].
Regarding `c1ccc(SCc2nc3ccccc3[nH]2)nc1`, the cell number change came out at 35.2%. Moreover, the AC50 under setting [1] is 5.17 µM [rising, single point].
Regarding `C=CCN1C(=O)C2(OCCCO2)c2cc(Cl)ccc21`, the AC50 under setting [2] is 29.1 µM [falling, single point].
As to `Cc1cccc(C(=O)OCC(=O)N2CCCCCC2)c1`, the cell number change was -14.2%.
As for `O=C(COc1ccc(Cl)cc1)NCCNC(=O)c1cnccn1`, the cell number change was 15.8%. Further, under setting [2], the half-maximal activity concentration (AC50) is 20 µM [falling, single point].
For the compound `O=C(Nc1ccc2c(c1)OCCO2)NC12CC3CC(CC(C3)C1)C2`, the cell number change was -0.517%. For the same compound, the AC50 under setting [2] was 0.82 µM [rising, partial curve, poor fit].
On to `Cc1ccc(NC2=C/C(=N\S(=O)(=O)c3cccs3)c3ccccc3C2=O)c(C)c1`, for which the cell number change is -1.68%. The AC50 under setting [1] was 2.59 µM [falling, partial curve]. Besides, under setting [2], the AC50 was 3.26 µM [falling, partial curve].
As to `CCN(CC)Cc1cc(NC2=NS(=O)(=O)c3ccccc32)ccc1OC(=O)c1ccccc1`, the cell number change is -14.6%. The AC50 under setting [2] is 29.1 µM [falling, single point].
With `COc1cccc2cc(C(C)N(CCCN3CCOCC3)C(=S)Nc3ccc(C)c(C)c3)oc12` (configuration not stated), the AC50 is, setting by setting: under setting [1], 0.164 µM [rising, full curve, poor fit]; under setting [2], 0.651 µM [rising, single point].
Regarding `O=C(NCCN1CCOCC1)c1c(O)nc2sccn2c1=O`, the cell number change amounted to 2.41%.
Take `Cc1ccc(-n2c(C)cc(-c3csc(N)n3)c2C)cc1`: the cell number change came out at 2.83%.
As for `COCCCNC(=O)CCCC(=O)NCCCOC`, the cell number change was -4.45%. Further, the concentration at half-maximal activity (AC50) under setting [2] is 0.00517 µM [falling, full curve, poor fit].
On to `CC(C)N(C(=O)C1CC(=O)OC12CCCCC2)C(C)C` (configuration not stated), for which the cell number change was found to be 13%. Moreover, the concentration at half-maximal activity (AC50) under setting [2] was 32.6 µM [falling, single point].
Take `C=CCNCCOCCOc1ccc(C)cc1Br`: the cell number change was -23.6%. Moreover, under setting [1], the AC50 was 6.51 µM [falling, partial curve, poor fit].
`COC(=O)C1=C(C)NC(=O)/C1=C\c1cc(C)n(-c2ccccc2F)c1C`: the cell number change is -10%. Moreover, the AC50 under setting [1] is 0.58 µM [falling, partial curve]. Also, under setting [2], the AC50 is 0.0058 µM [falling, full curve].
With `CCC1Nc2ncnc(N3CCN(c4ccccc4)CC3)c2N(Cc2ccc(Cl)cc2)C1=O` (configuration not stated), the cell number change is -22.4%. Moreover, under setting [2], the AC50 was 20.6 µM [falling, single point].
With `CCCCOc1ccc2c(c1)/C(=C(\C(Cl)=C(Cl)Cl)[N+](=O)[O-])N2`, the cell number change is -42.1%. The AC50 under setting [1] is 29.1 µM [falling, single point]. Further, under setting [2], the AC50 is 29.1 µM [falling, single point].
As for `COc1cccc(CN(C)C(=O)c2ccc3c(=O)n4c(nc3c2)CCC4)c1`, the cell number change was determined as 12.3%. Besides, the AC50 under setting [2] is 29.1 µM [falling, single point].
With `CN(C)CCCNC(=S)N1CCn2c(nc3ccccc32)C1`, the cell number change came to 12.8%. For the same compound, under setting [2], the AC50 is 6.51 µM [falling, single point].
On to `CN(C)S(=O)(=O)c1cccc(NC(=O)COc2nc3ccccc3nc2N2CCOCC2)c1`, for which the AC50 under setting [2] was 0.103 µM [falling, full curve, poor fit].
Regarding `CC1=NN(C(=O)c2ccc(Cn3nc(C)cc3C)o2)C(O)(C(F)(F)F)C1` (configuration not stated), the cell number change worked out at 45.1%. Also, under setting [1], the AC50 was 16.4 µM [rising, single point]. Also, the AC50 under setting [2] was 0.58 µM [rising, single point].
Turning to `CCCCC(=O)Nc1ccc(NC(=O)c2cc(OC)c(OC)c(OC)c2)cn1`, the cell number change is 4.19%.
In the case of `O=C(O)c1cccc2sc3cc(Cl)ccc3c(=O)c12`, the cell number change was -1.58%. For the same compound, the AC50 under setting [2] was 20.6 µM [rising, single point].
As to `Cc1c(Br)c([N+](=O)[O-])nn1CCCC(=O)N1CCN(c2ccccc2)CC1`, the cell number change was -2.46%. For the same compound, the AC50 under setting [2] is 1.64 µM [rising, partial curve].
Turning to `O=C(OCc1nc2scc(-c3ccccc3)c2c(=O)[nH]1)c1cc([N+](=O)[O-])ccc1Cl`, the cell number change worked out at 5.21%. Under setting [2], the AC50 was 2.91 µM [rising, single point].
In the case of `CC(C)Oc1ccc(C(=O)NN2C(=O)NC3(CCCCC3)C2=O)cc1`, the cell number change was -30.3%. Besides, the AC50 under setting [1] is 0.259 µM [falling, single point]. Further, under setting [2], the half-maximal activity concentration (AC50) is 29.1 µM [falling, single point].
As to `O=C(CSc1nnnn1C1CCCCC1)NCc1ccccc1`, the cell number change was 24.1%. Moreover, under setting [2], the AC50 is 16.4 µM [rising, partial curve, poor fit].
As to `C=C(C)c1ccc(C(C)(C)NC(=O)N(Cc2ccccc2)Cc2ccco2)cc1`, the cell number change was -55.1%. Moreover, the AC50 under setting [1] is 4.11 µM [falling, full curve]. Moreover, the AC50 under setting [2] is 29.1 µM [falling, single point].
`O=C(CSCc1ccc(Br)cc1)NC1CC1`: the cell number change was -10.1%.
`CN(C(=O)OCc1ccccc1)C(CC(N)=O)C(=O)O` (configuration not stated): the cell number change is -9.75%.
For `COc1ccc(CCNc2nc(-c3cccnc3)nc3ccccc23)cc1OC`, under setting [2], the AC50 was 29.1 µM [falling, single point].
As to `COCCCN(C(=S)Nc1cc(Cl)cc(Cl)c1)C(C)c1ccccn1` (configuration not stated), the cell number change was 10.4%. In addition, the half-maximal activity concentration (AC50) under setting [2] is 2.31 µM [rising, full curve, poor fit].
On to `Cc1cc(C)c(NC(=O)Cn2c(=O)c3cccn3c3ccccc32)c(C)c1`, for which the cell number change worked out at 22.8%. In addition, the half-maximal activity concentration (AC50) under setting [2] is 29.1 µM [rising, single point].
As for `CC1=C(C)CC(C(=O)NCc2ccc3c(c2)OCO3)C(C(=O)O)C1` (configuration not stated), the cell number change worked out at 0.0235%. Moreover, the AC50 under setting [2] was 29.1 µM [rising, single point].
Turning to `C=CCNc1nc(N)c(C(=O)c2ccc3c(c2)OCO3)s1`, the cell number change came to 83.1%. In addition, the half-maximal activity concentration (AC50) under setting [1] was 20.6 µM [rising, partial curve, poor fit]. Moreover, the AC50 under setting [2] is 0.82 µM [rising, full curve].
As to `Cc1cc(/C=C2\SC(=Nc3ccc(N4CCOCC4)cc3)N(C)C2=O)c(C)n1-c1cccnc1`, the cell number change was -9.39%. Further, the AC50 under setting [2] is 2.31 µM [falling, full curve, poor fit].
On to `CCCCN(C)C(=O)CCC(=O)Nc1ccc2nc(N3CCOCC3)cc(C)c2c1`, for which the cell number change was -30.9%. The AC50 under setting [1] was 32.6 µM [falling, single point]. Besides, under setting [2], the concentration at half-maximal activity (AC50) was 29.1 µM [falling, single point].
As to `Cn1nc(C(=O)N2CCCc3ccccc32)c2ccccc2c1=O`, the cell number change turned out to be 12%. In addition, under setting [1], the AC50 is 3.26 µM [rising, single point].
As to `COc1cc2c(cc1OC)C(COc1ccc(C(C)C)cc1)NCC2` (configuration not stated), the cell number change was -4.72%.
In the case of `CC1(C)CC(O)C(CCC(O)c2ccccc2)C(C)(C)N1` (configuration not stated), the cell number change is -0.104%. The AC50 under setting [2] was 29.1 µM [falling, single point].
As for `O=C(CCN1C(=O)/C(=C/C=C/c2ccccc2)SC1=S)Nc1cccnc1`, the cell number change was -70.6%. The AC50 under setting [1] was 14.6 µM [falling, partial curve, poor fit]. The half-maximal activity concentration (AC50) under setting [2] is 16.4 µM [falling, partial curve].
`COC(=O)c1sccc1NC(=O)c1c(-c2ccccc2)noc1C`: the cell number change is 3.7%. Moreover, the concentration at half-maximal activity (AC50) under setting [2] was 0.103 µM [falling, full curve, poor fit].
Turning to `CCOC(OCC)P(=O)(c1ccccc1)c1ccccc1`, the cell number change was -1.08%. For the same compound, the half-maximal activity concentration (AC50) under setting [2] was 0.326 µM [rising, full curve, poor fit].
As to `Cc1ccsc1C(=O)Nc1nnc(-c2ccco2)o1`, the cell number change was -89.8%. Moreover, the AC50 under setting [1] is 23.1 µM [falling, single point]. Besides, the AC50 under setting [2] was 29.1 µM [falling, single point].
Regarding `CCCCSCCCNC(=O)CS(=O)Cc1nc(-c2cccc(C)c2)oc1C` (configuration not stated), the cell number change is -17.8%. Further, the AC50 under setting [2] was 18.4 µM [rising, partial curve].
For the compound `Cn1cc(Br)c(C(=O)N/N=C/c2cccc(OC3CSC3)c2)n1`, the cell number change is 10.7%. In addition, the AC50 under setting [2] is 23.1 µM [rising, single point].
In the case of `COc1cc(S(=O)(=O)N(Cc2ccco2)C2CCCC2)ccc1-n1cnnn1`, the cell number change is -18.5%.
For the compound `Cc1ccc(-n2c(C)cc(C=C(C#N)C#N)c2C)cc1`, the cell number change is -26.2%. The AC50 under setting [2] was 29.1 µM [falling, single point].
`O=C(Nc1ccc(S(=O)(=O)N2CCOCC2)cc1)c1ccc2c(c1)S(=O)(=O)c1ccccc1C2=O`: the cell number change is 140%. Besides, the AC50 under setting [1] is 18.4 µM [rising, partial curve]. Also, the AC50 under setting [2] was 18.4 µM [rising, partial curve].

Values taken from PubChem BioAssay AID2685 (National Center for Advancing Translational Sciences (NCATS), 2010).
